{"source": "the supplement of paper PMC12889115", "system": "Salmonella enterica serovar Typhimurium SL1344", "assay": "bacterial growth OD600 after 18 h with compound and polymyxin B; higher = more bacterial growth (less inhibition)", "conditions": "50 µM, Mueller-Hinton broth", "note": "The list shows a part of the results. These are raw signals, not scaled to a control.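 In the initial screen, polymyxin B was used at a concentration that permeabilizes Salmonella's outer membrane but not its inner membrane. Maximum growth was set by DMSO wells with or without polymyxin B. Since plates varied, data were ranked per plate, and compounds giving the lowest OD600 advanced as hits.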", "data": [{"smiles": "COc1ccccc1C1(CC(=O)N2CCN(C3CCCCC3)CC2)CC(=O)N(C)C1=O", "note": "(stereo unspecified)", "values": [{"measurement": "bacterial growth OD600", "setting": "polymyxin B 0.75 µg/mL", "value": 0.858}]}, {"smiles": "Cc1n[nH]c(C)c1CNC(=O)c1cc(CN(C)Cc2ccccc2)on1", "values": [{"measurement": "bacterial growth OD600", "setting": "polymyxin B 0.75 µg/mL", "value": 0.832}]}, {"smiles": "COC(=O)c1cc(CNC(=O)Cc2nnc(-c3ccccc3)[nH]2)cc(NC(=O)/C=C/c2ccccc2)c1", "values": [{"measurement": "bacterial growth OD600", "setting": "polymyxin B 0.75 µg/mL", "value": 0.8}]}, {"smiles": "COc1cccc(C(=O)N(Cc2cccc(OCc3ccc(F)cc3)c2)C2CCCC2)c1OC", "values": [{"measurement": "bacterial growth OD600", "setting": "polymyxin B 0.75 µg/mL", "value": 0.004}]}, {"smiles": "CC(C)c1noc(-c2ccc(N3CCNC(=O)C3C(C)C)nc2)n1", "note": "(stereo unspecified)", "values": [{"measurement": "bacterial growth OD600", "setting": "polymyxin B 0.75 µg/mL", "value": 0.833}]}, {"smiles": "CSc1ccc(C(=O)C2CCCN(C(=O)c3cc4ccccc4oc3=O)C2)cc1", "note": "(stereo unspecified)", "values": [{"measurement": "bacterial growth OD600", "setting": "polymyxin B 1 µg/mL", "value": 0.608}]}, {"smiles": "COc1ccc(F)c(CC2(CCC(=O)N(CC3CCC3)CC3CCCO3)CCC(=O)N2)c1", "note": "(stereo unspecified)", "values": [{"measurement": "bacterial growth OD600", "setting": "polymyxin B 0.75 µg/mL", "value": 0.783}]}, {"smiles": "O=C(CC1(c2ccccc2Cl)CC(=O)N(C2CCCC2)C1=O)N1CCN(C(=O)c2ccco2)CC1", "note": "(stereo unspecified)", "values": [{"measurement": "bacterial growth OD600", "setting": "polymyxin B 0.75 µg/mL", "value": 0.858}]}, {"smiles": "O=C(c1coc(COc2cccc(F)c2F)n1)N1CCCC1", "values": [{"measurement": "bacterial growth OD600", "setting": "polymyxin B 1 µg/mL", "value": 0.883}]}, {"smiles": "OCc1ccc(CN2CCCC(CCc3c(F)cccc3F)C2)o1", "note": "(stereo unspecified)", "values": [{"measurement": "bacterial growth OD600", "setting": "polymyxin B 0.75 µg/mL", "value": 0.818}]}, {"smiles": "COc1cccc(CN(C)C(=O)c2ccc3oc(Cc4ccccc4)nc3c2)c1", "values": [{"measurement": "bacterial growth OD600", "setting": "polymyxin B 1 µg/mL", "value": 1.1}]}, {"smiles": "CN1CCN([C@@H]2CCN(Cc3ccc(N(C)c4ccccc4)cc3)C[C@H]2O)CC1", "values": [{"measurement": "bacterial growth OD600", "setting": "polymyxin B 0.75 µg/mL", "value": 0.793}]}, {"smiles": "Cc1ccc(CN(C)C(=O)c2ccc(OC3CCN(S(=O)(=O)N(C)C)CC3)cc2)o1", "values": [{"measurement": "bacterial growth OD600", "setting": "polymyxin B 1 µg/mL", "value": 1.35}]}, {"smiles": "CC#CC(=O)N1CCc2onc(C(c3ccccc3)c3ccccc3)c2C1", "values": [{"measurement": "bacterial growth OD600", "setting": "polymyxin B 0.75 µg/mL", "value": 0.006}]}, {"smiles": "CCOc1ccccc1CN1CCC(CO)(Cc2ccccc2Cl)CC1", "values": [{"measurement": "bacterial growth OD600", "setting": "polymyxin B 1 µg/mL", "value": 0.695}]}, {"smiles": "CCc1noc(C)c1C(=O)N1Cc2cc(C)ccc2OC(c2ccsc2)C1", "note": "(stereo unspecified)", "values": [{"measurement": "bacterial growth OD600", "setting": "polymyxin B 0.75 µg/mL", "value": 0.023}]}, {"smiles": "O=C1NCCCC[C@@H]1Nc1ccc(-c2nc(COc3ccccc3)no2)cn1", "values": [{"measurement": "bacterial growth OD600", "setting": "polymyxin B 1 µg/mL", "value": 0.86}]}, {"smiles": "CCOc1ccc2nc(N3CCCC3C(=O)NCCCn3cccn3)nc(C)c2c1", "note": "(stereo unspecified)", "values": [{"measurement": "bacterial growth OD600", "setting": "polymyxin B 0.75 µg/mL", "value": 0.808}]}, {"smiles": "O=C(c1ccoc1)N1CCC2(CCCN(CC3CC3)C2=O)C1", "note": "(stereo unspecified)", "values": [{"measurement": "bacterial growth OD600", "setting": "polymyxin B 1 µg/mL", "value": 0.912}]}, {"smiles": "C=CCC(=O)N1CCc2onc(-c3ccc(Cl)cc3)c2C1", "values": [{"measurement": "bacterial growth OD600", "setting": "polymyxin B 0.75 µg/mL", "value": 0.915}]}, {"smiles": "COc1ccc(CC(=O)NCC2CCCN(C(=O)c3cn4c(C)cccc4n3)C2)cc1", "note": "(stereo unspecified)", "values": [{"measurement": "bacterial growth OD600", "setting": "polymyxin B 0.75 µg/mL", "value": 0.815}]}]}
